US20040057908A1, “Oral compositions and use thereof” (priority 2003, published 2004)
Some of these results come from one statement about several compounds together. At least one structure is not confirmed: it was looked up by name or label, or the drawing left a doubt.

What was measured:
streptococcal GTFs [1] = tested on: T1, streptococcal GTFs; assay: GTF activity in solution, all GTFs (B, C, D, Ss) stated together; assay type: biochemical, Streptococcus mutans, S. sanguinis; conditions: 500 μM; range over the GTFs
T1 construct: Streptococcus milleri KSB8, which harbors the gtfB gene from S. mutans GS-5 (for GTF B production)
Method: The GTF enzyme added to each sample for all assays was equivalent to the amount required to incorporate 1.0-1.5 μmol of glucose over the four hours reaction (1.0-1.5 units).
The samples were incubated 37° C. with rocking for 4 h.
(§1) For this assay, a one-way layout experimental design was used in 4×2×7 factorial scheme (enzyme×state×dose). An analysis of variance was carried out and qualitative treatments were compared using Tukey test at level of 5% of significance (p<0.05). A non-linear regression was applied in order to evaluate effects of different concentrations.

streptococcal GTFs [2] = tested on: T1, streptococcal GTFs; assay: GTF activity adsorbed onto sHA surface, all GTFs stated together; assay type: biochemical, Streptococcus mutans, S. sanguinis; conditions: 500 μM; range over the GTFs
Method: Glucosyltransferase activity was measured by the incorporation of [^14C-glucose] from labeled sucrose (NEN Research Products, Boston, Mass.) into glucans (Germaine et al., 1974; Venkitaraman et al., 1995). The GTF enzyme added to each sample for all assays was equivalent to the amount required to incorporate 1.0-1.5 μmol of glucose over the four hours reaction (1.0-1.5 units).
For surface assays, the GTFs were adsorbed to hydroxyapatite beads coated with clarified whole saliva (free of GTF activity), as detailed elsewhere (Koo et al., 2000c; Schilling and Bowen, 1988, Venkitaraman et al., 1995). The saliva-coated hydroxyapatite (sHA) beads were exposed to sufficient enzyme to saturate the surface as determined experimentally. Following the adsorption of the enzyme, the beads were washed 3 times with buffer to remove the loosely bound material and exposed to 300 μl of the two-fold dilution series of test compounds (or control) for 30 min. at the same concentrations described above. The beads were washed and exposed to 300 μl [^14C-glucose]-sucrose substrate (100.0 mmol/l sucrose, final concentration). The radiolabeled glucan formed was collected and quantified by scintillation counting (Germaine et al., 1974; Venkitaraman et al., 1995). All the solution and surface assays were done in quadruplicate in at least 3 different experiments.
as §1

SMILES: CC(C)=CCC/C(C)=C/CC/C(C)=C/CO [tt-Farnesol]
- inhibition of the activity of GTFs in solution (streptococcal GTFs [1]): 8-45%
- inhibition of GTFs adsorbed on saliva-coated hydroxyapatite surface (streptococcal GTFs [2]): 7-24%

SMILES: C=C1CC/C=C(\C)CC[C@@H]2[C@@H]1CC2(C)C [β-Caryophyllene]
- inhibition of the activity of GTFs in solution (streptococcal GTFs [1]): 8-45%
- inhibition of GTFs adsorbed on saliva-coated hydroxyapatite surface (streptococcal GTFs [2]): 7-24%

SMILES: COc1cc(O)c2c(=O)c(O)c(-c3ccc(O)c(O)c3)oc2c1 [Rhamnetin]
- inhibition of the activity of GTFs in solution (streptococcal GTFs [1]): 70-90%
- inhibition of GTFs adsorbed on saliva-coated hydroxyapatite surface (streptococcal GTFs [2]): 19-40%
